From ROBIN, a set of small-molecule microarray screens (doi:10.1002/anie.202211358).

Targets (5′ to 3′):
TPP: TPP riboswitch RNA three-way junction, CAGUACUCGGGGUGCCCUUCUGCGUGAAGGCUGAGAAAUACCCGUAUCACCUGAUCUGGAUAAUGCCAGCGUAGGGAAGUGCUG. About 24,000 compounds screened, about 160 hits.
PreQ1: PreQ1 riboswitch RNA pseudoknot, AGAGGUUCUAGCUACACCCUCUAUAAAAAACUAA. From B. subtilis. About 24,000 compounds screened, about 170 hits.
SAM-II: SAM-II riboswitch RNA pseudoknot, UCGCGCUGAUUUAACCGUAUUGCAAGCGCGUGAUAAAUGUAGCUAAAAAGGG. About 21,000 compounds screened, about 200 hits.

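Compounds were printed on reactive glass slides in duplicate spots, a dye-labelled oligonucleotide was laid over them, and the fluorescence left after washing was read. For the PreQ1, TPP and SAM-II riboswitches the laboratory earlier reported (doi:10.1038/s41467-019-09493-3) 1 µM RNA, 2 h, and a rule that included a mean Z-score above 3 (spot signal-to-noise against the whole library), a score well above that on a control array, and duplicate spots agreeing (coefficient of variation under 100). The data file gives only the calls; its cut-offs may differ, and compounds hitting several targets are kept. A missing hit is not proof of no binding, and a hit is not a measured affinity.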
Key: 1 = hit, 0 = tested without a hit.
The compounds are a random part of those screened.
A dash means that no call is listed here.

structure,TPP,PreQ1,SAM-II
Nc1ccccc1C(=O)NN=Cc1cccs1,0,1,0
CCOC(=O)N1CCC(Nc2c(N3CCN(C)CC3)c(=O)c2=O)CC1,0,0,-
Cc1cccc(NC(=O)CNC(C)c2ccc(Cl)cc2)c1C (stereo not drawn),0,0,0
O=C(NC1CCN(Cc2cccc(O)c2)CC1)c1ccc(C2CCCNC2)cc1 (stereo not drawn),0,0,0
CN(C)CCN(C)C[C@@H]1CN(Cc2cc3ccccc3n2C)C[C@@H]1CO,0,0,0
Cn1c(CC2CCNCC2)nnc1SCc1noc(-c2ccccc2)n1,0,0,0
c1cnc2c(c1)ccc1ncccc12,0,0,0
Cc1cc(Nc2ccc(N3CCOCC3)cc2)n2ncnc2n1,0,0,0
COc1ccccc1-c1cc2nc(C)cc(NCc3ccccn3)n2n1,0,0,-
CCN(C)C1(CNC(=O)c2cnc(N)nc2-c2ccccc2)CCCCC1,0,0,0
COc1ccc(-c2cc(Nc3ccccc3Cl)nc(C)n2)cc1,0,0,-
CSCCc1nc(C2CCCNCC2)n(CCc2ccccc2)n1 (stereo not drawn),0,0,0
Cc1nc(N)sc1-c1csc(Nc2ccc(Br)cc2)n1,0,0,0
Cc1nn(CCn2ccnc2-c2cc3n(n2)CCCNC3)c(C)c1Cl,0,0,0
CCOC(=O)c1ccc(Nc2nc3cccnc3s2)cc1,0,0,0
CC(C)Cc1cc(CNC(=O)[C@H]2CNC[C@H](C(=O)N3CCCC3)C2)no1,0,0,0
O=C(O)/C=C/C(=O)N1Cc2cc3ccccc3nc2C1,0,0,0
Cc1nc(-c2cccnc2)ncc1C(=O)N1Cc2ccccc2C(O)C1 (stereo not drawn),0,0,0
CCC(CO)n1cc2c(c1-c1ccc(Cl)cc1Cl)c(=O)n(C)c(=O)n2C (stereo not drawn),0,0,0
CC(C)CC(NC1=C(Cl)C(=O)c2ccccc2C1=O)C(=O)O (stereo not drawn),0,0,0
CCOc1ccc(-c2cnc(NCc3c(F)cccc3Cl)n2C)cc1,0,0,0
O=C(Cc1cn2ccsc2n1)N1C[C@@H]2c3ccccc3OC[C@]2(CO)C1,0,0,0
O=C(CCNCC(O)c1ccccc1Cl)NCc1cccs1 (stereo not drawn),0,0,0
COc1cccc(Nc2cc(C)nc3nc(Cc4ccc(Cl)cc4)nn23)c1,0,0,-
COc1ccc(C(CCNCc2ccco2)Cc2ccccc2)cc1 (stereo not drawn),0,0,0
COc1ccc(-c2nn3c(NCCN4CCOCC4)cc(C)nc3c2C)cc1OC,0,0,-
COc1cc2c(cc1OC)C(=O)Cc1ccc3c(c1CN(C)CC2)OCO3,0,0,0
COc1cc(C2C(C#N)=C(N)Oc3c2ccc2ccccc32)cc(OC)c1OC (stereo not drawn),0,0,0
Cc1cc(C)c2c3c(sc2n1)C(c1ccc(F)c(F)c1)C(C#N)=C(N)O3 (stereo not drawn),0,0,0
COc1cccc(-n2cc(CN(C)c3nc(CO)cs3)cn2)c1,0,0,0
COc1ccc(S(=O)(=O)N2CCN(c3cc(C)nc(Nc4ccc(C)cc4)n3)CC2)cc1OC,0,0,-
OCC(O)C(O)C(O)CO (stereo not drawn),0,0,0
Cc1cc(C)n(CNc2ccc(I)cc2)n1,0,0,0
CCC[C@@H]1CN(Cc2ccc(CCN)cc2)C[C@H]1NC(C)=O,0,0,0
CC(O)c1cccc(NC(=O)c2nn3c(c2Cl)N[C@@H](c2cccs2)C[C@H]3C(F)(F)F)c1 (stereo partly drawn),0,0,0
Cc1ccc(-c2ccnc(N3Cc4ccccc4C(O)C3)n2)c(C)n1 (stereo not drawn),0,0,0
Cc1ccc(-c2cc(C(=O)NCCN3CCCCC3CO)n[nH]2)cc1 (stereo not drawn),0,0,0
Clc1ccc(C(Cn2ccnc2)OCc2c(Cl)cccc2Cl)c(Cl)c1 (stereo not drawn),0,0,0
CN(C)c1ccc(CN2CCN(CCO)[C@@H]3CS(=O)(=O)C[C@@H]32)cn1,0,0,0
Cc1cc2nc(C(=O)N3CC[C@H]4NCCC[C@]4(C(=O)O)C3)cc(C)n2n1,0,0,0
COc1ccc(-c2noc(-c3cccnc3NCc3ccccc3OC)n2)cc1,0,0,-
O=C(CSCc1ccccc1Cl)N1CCOCC(O)C1 (stereo not drawn),0,0,0
CCOC(=O)C1CCN(CC(O)COc2ccc(C(C)=O)cc2)CC1 (stereo not drawn),0,0,0
Nc1c(C(=O)Nc2cc(F)ccc2F)nnn1-c1ccccc1,0,0,0
Cc1cc(N2CCN(CCO)CC2)n2nc(-c3ccc(Cl)cc3)c(C)c2n1,0,0,-
Cc1cc(N2CCC(NCCCN3CCc4ccccc43)CC2)nc(N)n1,1,0,0

Repeated from the top, 5 entries:

structure	TPP	PreQ1	SAM-II
Nc1ccccc1C(=O)NN=Cc1cccs1	0	1	0
CCOC(=O)N1CCC(Nc2c(N3CCN(C)CC3)c(=O)c2=O)CC1	0	0	-
Cc1cccc(NC(=O)CNC(C)c2ccc(Cl)cc2)c1C (stereo not drawn)	0	0	0
O=C(NC1CCN(Cc2cccc(O)c2)CC1)c1ccc(C2CCCNC2)cc1 (stereo not drawn)	0	0	0
CN(C)CCN(C)C[C@@H]1CN(Cc2cc3ccccc3n2C)C[C@@H]1CO	0	0	0